# Measured values as given in PubChem BioAssay AID2517 (National Center for Advancing Translational Sciences (NCATS), 2010).
# Chains of the proteins cited; added tags and fusions are not shown.
# UniProt P27695, whole entry, looked up: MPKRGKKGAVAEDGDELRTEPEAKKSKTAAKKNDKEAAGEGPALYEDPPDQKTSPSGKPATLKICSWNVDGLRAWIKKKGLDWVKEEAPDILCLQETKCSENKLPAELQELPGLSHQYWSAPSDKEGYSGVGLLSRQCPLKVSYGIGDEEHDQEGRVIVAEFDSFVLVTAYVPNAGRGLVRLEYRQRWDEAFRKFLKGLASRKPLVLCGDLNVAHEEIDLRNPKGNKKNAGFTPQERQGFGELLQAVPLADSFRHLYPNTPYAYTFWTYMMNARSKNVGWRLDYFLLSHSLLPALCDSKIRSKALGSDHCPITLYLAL
# Out of some 350,000 compounds screened, about 1,200 (0.34%) were called active. Inconclusive results, whose numbers are uncertain, are shown with a selection of clear calls. The call rests on the fitted dose curve; in most records, active means well fitted inhibition curve with a large enough effect; inconclusive means small, poorly fitted or top-dose-only effect; inactive means no such curve, though single readings can be large or run the other way. Potencies beside an inconclusive call are fits to weak or partial responses and may not hold up.
# Molecular target: DNA repair nuclease/redox regulator APEX1 (Homo sapiens) (UniProt P27695)
# Assay: qHTS Assay for Inhibitors of the Human Apurinic/apyrimidinic Endonuclease 1 (APE1); further: nearly all actives have a fitted effect of over 55% in size;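 on activity change, negative = inhibition: plate controls were vehicle for no effect and reference inhibitor for full effect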
# Conditions: recombinant APE1, TAMRA/BHQ-2 abasic DNA cleavage fluorescence; activity change, negative = inhibition: at 65.8 µM (top of the series)
# Procedure, shortened: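 Substrate: short duplex with […] THF abasic site, 5'-TAMRA and 3'-BHQ-2, 50 nM final. APE1 at 0.75 nM, preincubated 15 min RT with compound. Fluorescence increase from first to third read measured activity.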
# Potency means the concentration at half of the fitted maximal effect.
SMILES,Potency,"activity change, negative = inhibition"
CN1/C(=C\C=C2/SC(=S)N(CC(=O)O)C2=O)C(C)(C)c2ccccc21,active: 25.1 µM,
CC(=O)Nc1ccc2c(c1)CCc1ccccc1-2,inactive,
O=C(CCc1nc(-c2ccc(Cl)cc2)no1)NCc1ccccc1CN1CCOCC1,inactive,
COC(=O)C/C=C\[C@@H](C)[C@@H](/C=N\OC[C@@H](C)[C@H](OCc1ccccc1)C(C)C)NS(=O)(=O)c1ccc(C)cc1,,inactive: 4.47% [at 12.4 µM]
CCCc1cc(=O)c2ccc(OCC(C)=O)cc2o1,"inconclusive: 5.01 µM [inhibitor, full curve, poor fit]",
C#CCSc1nc(=O)c2cccnc2n1-c1ccc(C)cc1,"inconclusive: 3.55 µM [inhibitor, partial curve, poor fit]",
CCc1ccc(N2C(=O)c3ccc4c5c(ccc(c35)C2=O)CC4)cc1,"inconclusive: 17.8 µM [inhibitor, partial curve, poor fit]",
COc1ccccc1CCNC(=O)CSc1ccc(-c2ccco2)nn1,"inconclusive: 35.5 µM [inhibitor, single point]",
Cc1ccc(OCC(=O)Nc2cc(S(=O)(=O)N3CCCCC3)ccc2C)c([N+](=O)[O-])n1,"inconclusive: 20 µM [inhibitor, partial curve, poor fit]",
Cc1cccc(C)c1OCC(=O)N/N=C/C=C/c1ccco1,"inconclusive: 0.562 µM [inhibitor, full curve, poor fit]",
O=C(CCNS(=O)(=O)c1cccc2nsnc12)Nc1ccc2c(c1)OCCO2,"inconclusive: 0.199 µM [inhibitor, single point]",
O=C(Nc1ccc2c(c1)CCC2)C1COc2ccccc2O1 (stereo not given),"inconclusive: 20 µM [inhibitor, partial curve, poor fit]",
CSc1nc(N)c2ncn([C@H]3O[C@H](COP(=O)(O)OP(=O)(O)OP(=O)(O)O)[C@@H](O)[C@@H]3O)c2n1,"inconclusive: 39.8 µM [inhibitor, single point]",
COc1ccc(Cn2cccc(NC(=O)Nc3cccc(C#N)c3)c2=O)cc1,"inconclusive: 31.6 µM [inhibitor, partial curve]",
Cc1cc(C(=O)OCC(=O)NCc2ccco2)c(C)o1,"inconclusive: 15.8 µM [inhibitor, single point]",
COc1cccc(NC(=O)COC(=O)c2ccc(S(=O)(=O)NCc3ccco3)cc2)c1,"inconclusive: 20 µM [inhibitor, partial curve]",
O=C(CSc1nnc2ccc3ccccc3n12)N1CCOCC1,"inconclusive: 35.5 µM [inhibitor, partial curve]",
CCCN1CCc2c(sc(NC(=S)NC(=O)c3ccccc3)c2C#N)C1,"inconclusive: 39.8 µM [inhibitor, single point]",
O=C(Nc1cnc2ccccc2c1)C1COc2ccccc2O1 (stereo not given),"inconclusive: 12.6 µM [inhibitor, partial curve, poor fit]",
Nc1ccc(S(=O)(=O)NNC(=O)C(=O)NNc2ccccc2)cc1,"inconclusive: 0.562 µM [inhibitor, full curve, poor fit]",

# Filtered by structure: the compounds so far containing a cyano group (two)
SMILES,Potency,"activity change, negative = inhibition"
COc1ccc(Cn2cccc(NC(=O)Nc3cccc(C#N)c3)c2=O)cc1,"inconclusive: 31.6 µM [inhibitor, partial curve]",
CCCN1CCc2c(sc(NC(=S)NC(=O)c3ccccc3)c2C#N)C1,"inconclusive: 39.8 µM [inhibitor, single point]",

# The list goes on:

SMILES,Potency,"activity change, negative = inhibition"
COc1cccc(C(=O)N2CCOCC2)c1,inactive,
O=C(Nc1nc2ccccc2[nH]1)C1CCCC1,"inconclusive: 0.0501 µM [inhibitor, full curve, poor fit]",
CN(C)CCCCOc1cccc(Br)c1,"inconclusive: 0.447 µM [inhibitor, full curve, poor fit]",
CC1(C(=O)OCC(=O)Nc2ccc3ccccc3c2)CC1(Cl)Cl (stereo not given),"inconclusive: 22.4 µM [inhibitor, partial curve]",
Cc1cccc(NS(=O)(=O)c2ccc(C)c(C(=O)OCC(=O)Nc3cc(C)on3)c2)c1,"inconclusive: 31.6 µM [inhibitor, single point]",
CC(=O)Nc1ccc2c(c1)c1ccccc1n2C(C)=O,"inconclusive: 14.1 µM [inhibitor, partial curve]",
CCNC(=O)c1ccccc1-c1nc(-c2ccccc2)no1,"inconclusive: 0.0501 µM [inhibitor, full curve, poor fit]",
CCOC(=O)c1ccc(NC(=O)CSc2nc(NC(=O)c3ccccc3)c3c(C)c(C)oc3n2)cc1,"inconclusive: 2 µM [inhibitor, partial curve]",
O=C(O)COc1c(Cl)cc(/C=C2\NC(=O)NC2=O)cc1Br,inactive,
COC(=O)C/C=C\[C@@H](C)[C@@H](/C=N\OC[C@@H]1O[C@H](c2ccccc2)C=C[C@@H]1Oc1ccc(OC)cc1)OC,,inactive: -5.1% [at 12.4 µM]
Cc1ccc(N(CC(=O)Nc2ccc(F)c(Cl)c2)S(=O)(=O)c2c(C)noc2C)cc1,"inconclusive: 31.6 µM [inhibitor, single point]",
COc1ccc(C(=O)CSC#N)cc1OC,inactive,
Cc1cccc(C)c1-n1c(C)cc(/C=N\Nc2ccc([N+](=O)[O-])cn2)c1C,"inconclusive: 3.55 µM [inhibitor, single point]",
Clc1cccc(Cl)c1C1Nc2cccc3cccc(c23)N1,inactive,
CN(C)CCCNc1c2ccccc2nc2ccccc12,active: 9.47 µM,
Cc1ccc(NC(=O)CN(c2ccc(Cl)cc2)S(=O)(=O)c2cc([N+](=O)[O-])ccc2Cl)c(C)c1,"inconclusive: 0.708 µM [inhibitor, single point]",
COc1ccc(C(=O)OCC(=O)NC(=O)NC(C)C)cc1OC,"inconclusive: 39.8 µM [inhibitor, single point]",
O=C(CCCn1c(=O)c2ccccc2n(CC(=O)NCc2ccco2)c1=O)NCc1ccco1,"inconclusive: 50.1 µM [inhibitor, partial curve, poor fit]",
COC(=O)[C@@]1(Cc2ccc(OC)cc2)[C@H]2c3cc(C(=O)N4CCCC4)n(Cc4ccc(S(C)(=O)=O)cc4)c3C[C@H]2CN1C(=O)c1ccccc1,"inconclusive: 35.5 µM [inhibitor, partial curve]",
COc1ccc2[nH]c(=O)cc(C(=O)O)c2c1,"inconclusive: 35.5 µM [inhibitor, single point]",
